From PubChem BioAssay AID296 (DTP/NCI, 2004)
Inconclusive results are not listed.

System: MX-1 breast xenograft, nude mice, tumor weight T/C
Test: NCI In Vivo Anticancer Drug Screen. Data for tumor model Human Mammary Carcinoma MX-1 Xenograft (intrarenal inoculation) in NU/NU Swiss (nude) mice
Details: endpoint: mean tumor weight change, schedule: Q01DX010 (sc), vehicle: Klucel (hydroxypropylcellulose) (HPC), higher = larger tumour
Protocol: The antitumor activity of compounds was measured in mice bearing transplantable tumors. Survival or tumor size were measured and the results are expressed as the measurement made in the treated group (T) divided by the measurement made in the vehicle treated control group (C). The tumor model used in this assay is Human Mammary Carcinoma MX-1 Xenograft (intrarenal inoculation) in NU/NU Swiss (nude) mice

For COc1cc2c(c(OC)c1OC)-c1ccc(OC)c(=O)cc1[C@@H](N)CC2, the T/C (dose: 0.63 mg/kg/injection) was 120 % of control, the T/C (dose: 1.25 mg/kg/injection) was 65 % of control and the T/C (dose: 2.5 mg/kg/injection) was 48 % of control. For the same molecule, the T/C (dose: 5.0 mg/kg/injection) was 60 % of control.
